# PubChem BioAssay AID1508597, Cure First | 2020
# Assay: 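Knock-downs altering ovarian cancer cell survival with or without PARP inhibitor rucaparib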 (primary screen)
# System: human ovarian carcinoma lines grown from tumours: OCI-P5x (papillary serous) and OCI-C5x (clear cell)
# Reagent: siRNA pool against human genes, 1.25 pmol siRNA per well
# Time to read-out: 72 h or 96 h, depending on the cell culture
# Conditions: rucaparib 20 µM (about IC30) or vehicle, present until read-out
# Rucaparib or vehicle: Rucaparib
# Cell line: OCI-P5x (serous)
# Measured: 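ATP luminescence measured at 72 or 96 h according to the culture, then normalised and expressed as percent viability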
# Direction: viability, normalised: higher = more viable cells remaining
# Rule for the call: 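Active when normalised viability falls below 80 percent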
# Calls: active = viability under 80%; inactive = viability 80% or more
# Shown is a random part of the about 2,100 reagents, under one of the conditions tested. 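Calls flag viability under 80% in either arm, not effects specific to rucaparib; the reference for percent is not stated.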 A number with no mark means an inactive call. Some reagents were tested in more than one well and are listed for each. Not given: the 100% reference.
target gene,technical replicate,"viability, normalised (%)"
PAPSS1 (3'-phosphoadenosine 5'-phosphosulfate synthase 1),1,111
PAPSS1 (3'-phosphoadenosine 5'-phosphosulfate synthase 1),2,84
PAPSS1 (3'-phosphoadenosine 5'-phosphosulfate synthase 1),3,71.4 (active)
GMEB2 (glucocorticoid modulatory element binding protein 2),1,67.5 (active)
GMEB2 (glucocorticoid modulatory element binding protein 2),2,58.7 (active)
GMEB2 (glucocorticoid modulatory element binding protein 2),3,69 (active)
NEK9 (NIMA related kinase 9),1,97.9
NEK9 (NIMA related kinase 9),2,91.4
NEK9 (NIMA related kinase 9),3,55.7 (active)
BCL2 (BCL2 apoptosis regulator),1,73.3 (active)
BCL2 (BCL2 apoptosis regulator),2,86.8
BCL2 (BCL2 apoptosis regulator),3,79 (active)
PTTG1,1,44.9 (active)
PTTG1,1,66.6 (active)
PTTG1,2,61.2 (active)
PTTG1,2,80.7
PTTG1,3,60.5 (active)
PTTG1,3,57.1 (active)
"YES1 (YES proto-oncogene 1, Src family tyrosine kinase)",1,53.9 (active)
"YES1 (YES proto-oncogene 1, Src family tyrosine kinase)",1,82
"YES1 (YES proto-oncogene 1, Src family tyrosine kinase)",2,55.8 (active)
"YES1 (YES proto-oncogene 1, Src family tyrosine kinase)",2,104
"YES1 (YES proto-oncogene 1, Src family tyrosine kinase)",3,59.3 (active)
"YES1 (YES proto-oncogene 1, Src family tyrosine kinase)",3,62 (active)
PDE8B (phosphodiesterase 8B),1,52.7 (active)
PDE8B (phosphodiesterase 8B),2,56.7 (active)
PDE8B (phosphodiesterase 8B),3,48.4 (active)
PDE4D (phosphodiesterase 4D),1,45 (active)
PDE4D (phosphodiesterase 4D),2,39.4 (active)
PDE4D (phosphodiesterase 4D),3,49.8 (active)
MECP2 (methyl-CpG binding protein 2),1,38 (active)
MECP2 (methyl-CpG binding protein 2),2,44.7 (active)
MECP2 (methyl-CpG binding protein 2),3,38.3 (active)
CDK4 (cyclin dependent kinase 4),1,77.4 (active)
CDK4 (cyclin dependent kinase 4),2,93.6
CDK4 (cyclin dependent kinase 4),3,76.2 (active)
RTEL1 (regulator of telomere elongation helicase 1),1,54.6 (active)
RTEL1 (regulator of telomere elongation helicase 1),2,66.2 (active)
RTEL1 (regulator of telomere elongation helicase 1),3,59.7 (active)
CAMK1D (calcium/calmodulin dependent protein kinase ID),1,118
CAMK1D (calcium/calmodulin dependent protein kinase ID),2,109
CAMK1D (calcium/calmodulin dependent protein kinase ID),3,75.2 (active)
UCK2 (uridine-cytidine kinase 2),1,108
UCK2 (uridine-cytidine kinase 2),2,101
UCK2 (uridine-cytidine kinase 2),3,88
PTK6 (protein tyrosine kinase 6),1,87.4
PTK6 (protein tyrosine kinase 6),2,89.5
PTK6 (protein tyrosine kinase 6),3,72.9 (active)
DGKG (diacylglycerol kinase gamma),1,75 (active)
DGKG (diacylglycerol kinase gamma),2,86.8
DGKG (diacylglycerol kinase gamma),3,79.7 (active)
KAT6B (lysine acetyltransferase 6B),1,49.3 (active)
KAT6B (lysine acetyltransferase 6B),2,57.6 (active)
KAT6B (lysine acetyltransferase 6B),3,59.7 (active)
SMARCA4,1,71.9 (active)
SMARCA4,1,48.5 (active)
SMARCA4,2,49.9 (active)
SMARCA4,2,59.9 (active)
SMARCA4,3,39.6 (active)
SMARCA4,3,68.7 (active)

Sorted by “viability, normalised (%)” (ascending): some entries from above
target gene,technical replicate,"viability, normalised (%)"
PTK6 (protein tyrosine kinase 6),3,72.9 (active)
PTK6 (protein tyrosine kinase 6),1,87.4
UCK2 (uridine-cytidine kinase 2),3,88
PTK6 (protein tyrosine kinase 6),2,89.5
UCK2 (uridine-cytidine kinase 2),2,101
